# ± gives the standard deviation of the averaged measurements. Only a part is listed here, and it is no random draw.
# The chains behind the UniProt entries cited, without tags or fusion partners. Where a name states a change or a piece, a line headed by the entry shows the natural chain unless it says otherwise.
# UniProt Q96ER9: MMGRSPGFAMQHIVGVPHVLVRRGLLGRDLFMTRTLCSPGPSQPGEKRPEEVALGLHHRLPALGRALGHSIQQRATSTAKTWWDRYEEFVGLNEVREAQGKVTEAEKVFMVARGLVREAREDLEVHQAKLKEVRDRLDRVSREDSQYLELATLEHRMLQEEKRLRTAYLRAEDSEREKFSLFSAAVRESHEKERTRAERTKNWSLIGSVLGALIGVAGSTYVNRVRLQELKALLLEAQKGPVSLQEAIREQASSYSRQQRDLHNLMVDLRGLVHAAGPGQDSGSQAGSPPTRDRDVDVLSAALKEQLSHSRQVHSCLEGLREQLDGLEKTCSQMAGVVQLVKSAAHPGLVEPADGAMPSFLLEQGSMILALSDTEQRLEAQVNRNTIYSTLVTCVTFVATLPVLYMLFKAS
# UniProt Q96QR8: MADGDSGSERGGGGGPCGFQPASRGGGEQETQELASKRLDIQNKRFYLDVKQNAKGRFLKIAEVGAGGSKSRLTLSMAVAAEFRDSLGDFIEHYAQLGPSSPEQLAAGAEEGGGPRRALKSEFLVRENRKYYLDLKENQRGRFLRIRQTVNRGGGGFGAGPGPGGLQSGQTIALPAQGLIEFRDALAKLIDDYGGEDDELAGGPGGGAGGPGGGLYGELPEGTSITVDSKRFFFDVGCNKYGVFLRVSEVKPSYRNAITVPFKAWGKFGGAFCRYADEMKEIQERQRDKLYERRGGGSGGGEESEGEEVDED
# UniProt Q96CG8: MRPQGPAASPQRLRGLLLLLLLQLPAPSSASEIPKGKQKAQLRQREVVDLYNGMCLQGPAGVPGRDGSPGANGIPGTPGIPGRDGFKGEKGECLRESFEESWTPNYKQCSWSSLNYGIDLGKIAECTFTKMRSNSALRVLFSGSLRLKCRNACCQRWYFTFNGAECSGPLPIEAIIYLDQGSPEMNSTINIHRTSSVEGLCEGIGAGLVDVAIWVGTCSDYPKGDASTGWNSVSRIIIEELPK
# UniProt Q96QE5: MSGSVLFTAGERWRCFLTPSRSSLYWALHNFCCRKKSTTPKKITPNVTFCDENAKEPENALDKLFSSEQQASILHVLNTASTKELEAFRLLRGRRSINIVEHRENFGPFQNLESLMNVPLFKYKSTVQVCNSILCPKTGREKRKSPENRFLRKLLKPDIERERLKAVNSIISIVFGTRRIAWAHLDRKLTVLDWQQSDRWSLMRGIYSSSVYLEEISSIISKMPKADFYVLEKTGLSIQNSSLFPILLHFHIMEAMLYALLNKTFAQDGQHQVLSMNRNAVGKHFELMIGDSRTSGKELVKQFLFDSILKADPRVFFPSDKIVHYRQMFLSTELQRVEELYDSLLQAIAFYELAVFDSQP
# UniProt Q96NC0: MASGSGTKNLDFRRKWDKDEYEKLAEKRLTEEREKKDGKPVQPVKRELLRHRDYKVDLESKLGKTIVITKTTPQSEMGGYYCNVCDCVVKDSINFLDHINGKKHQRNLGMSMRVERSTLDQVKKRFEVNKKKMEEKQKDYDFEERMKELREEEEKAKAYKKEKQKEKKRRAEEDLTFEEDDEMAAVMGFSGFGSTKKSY
# UniProt Q96RR4, whole entry, looked up: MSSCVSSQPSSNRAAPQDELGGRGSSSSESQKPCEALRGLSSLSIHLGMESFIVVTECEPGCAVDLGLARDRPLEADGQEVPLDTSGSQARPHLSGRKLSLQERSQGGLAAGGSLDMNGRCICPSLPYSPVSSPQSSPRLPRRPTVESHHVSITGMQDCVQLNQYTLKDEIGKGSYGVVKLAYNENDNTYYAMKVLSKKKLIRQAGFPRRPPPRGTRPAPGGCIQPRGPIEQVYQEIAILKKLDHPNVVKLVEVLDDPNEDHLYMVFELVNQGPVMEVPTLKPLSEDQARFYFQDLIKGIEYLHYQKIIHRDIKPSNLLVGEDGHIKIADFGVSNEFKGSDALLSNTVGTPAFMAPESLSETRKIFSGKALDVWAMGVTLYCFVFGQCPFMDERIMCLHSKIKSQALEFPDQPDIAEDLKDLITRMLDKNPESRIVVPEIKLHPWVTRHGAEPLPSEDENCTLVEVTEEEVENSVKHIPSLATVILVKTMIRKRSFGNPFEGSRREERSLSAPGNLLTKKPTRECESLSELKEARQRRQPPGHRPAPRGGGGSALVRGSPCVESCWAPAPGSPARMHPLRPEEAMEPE
# UniProt Q96EK5: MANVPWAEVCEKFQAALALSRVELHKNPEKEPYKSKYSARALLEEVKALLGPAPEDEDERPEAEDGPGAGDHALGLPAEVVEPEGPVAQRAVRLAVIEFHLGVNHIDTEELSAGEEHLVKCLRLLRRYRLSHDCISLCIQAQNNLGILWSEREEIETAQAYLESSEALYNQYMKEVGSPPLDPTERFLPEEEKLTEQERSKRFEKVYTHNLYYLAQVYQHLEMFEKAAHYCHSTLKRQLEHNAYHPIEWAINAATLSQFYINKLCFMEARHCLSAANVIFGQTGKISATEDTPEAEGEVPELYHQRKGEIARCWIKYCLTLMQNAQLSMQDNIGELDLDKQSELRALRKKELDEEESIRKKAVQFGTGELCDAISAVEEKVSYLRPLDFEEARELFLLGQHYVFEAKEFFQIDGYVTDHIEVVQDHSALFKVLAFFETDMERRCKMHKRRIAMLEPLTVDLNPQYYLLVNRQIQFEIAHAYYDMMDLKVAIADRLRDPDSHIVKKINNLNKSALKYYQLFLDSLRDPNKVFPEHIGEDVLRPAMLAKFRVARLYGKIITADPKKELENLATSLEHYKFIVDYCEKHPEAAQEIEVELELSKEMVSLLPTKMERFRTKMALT
# UniProt Q96S66: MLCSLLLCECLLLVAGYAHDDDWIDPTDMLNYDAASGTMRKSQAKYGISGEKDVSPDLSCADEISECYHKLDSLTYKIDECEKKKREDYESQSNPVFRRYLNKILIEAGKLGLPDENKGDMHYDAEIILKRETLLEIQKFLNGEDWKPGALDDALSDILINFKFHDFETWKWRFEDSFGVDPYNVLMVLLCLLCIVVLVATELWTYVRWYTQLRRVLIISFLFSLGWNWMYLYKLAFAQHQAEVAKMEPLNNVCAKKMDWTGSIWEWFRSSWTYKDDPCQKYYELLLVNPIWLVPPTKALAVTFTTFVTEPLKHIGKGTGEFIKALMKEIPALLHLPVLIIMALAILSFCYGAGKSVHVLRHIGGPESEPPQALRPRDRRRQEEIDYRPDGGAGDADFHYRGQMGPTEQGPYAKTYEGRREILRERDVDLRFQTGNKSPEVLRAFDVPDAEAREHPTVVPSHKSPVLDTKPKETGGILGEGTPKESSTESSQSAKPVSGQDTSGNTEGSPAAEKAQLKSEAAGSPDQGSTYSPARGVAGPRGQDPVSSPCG
# UniProt Q96S97: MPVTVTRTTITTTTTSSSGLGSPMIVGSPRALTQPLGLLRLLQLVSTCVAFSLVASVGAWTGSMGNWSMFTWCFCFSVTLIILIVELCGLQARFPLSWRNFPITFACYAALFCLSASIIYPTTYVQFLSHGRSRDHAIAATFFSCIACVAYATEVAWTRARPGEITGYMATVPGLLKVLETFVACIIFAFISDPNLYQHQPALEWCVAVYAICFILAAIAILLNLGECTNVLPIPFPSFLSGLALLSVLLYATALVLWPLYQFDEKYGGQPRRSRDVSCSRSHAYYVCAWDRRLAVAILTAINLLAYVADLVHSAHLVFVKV
# UniProt Q96QU8: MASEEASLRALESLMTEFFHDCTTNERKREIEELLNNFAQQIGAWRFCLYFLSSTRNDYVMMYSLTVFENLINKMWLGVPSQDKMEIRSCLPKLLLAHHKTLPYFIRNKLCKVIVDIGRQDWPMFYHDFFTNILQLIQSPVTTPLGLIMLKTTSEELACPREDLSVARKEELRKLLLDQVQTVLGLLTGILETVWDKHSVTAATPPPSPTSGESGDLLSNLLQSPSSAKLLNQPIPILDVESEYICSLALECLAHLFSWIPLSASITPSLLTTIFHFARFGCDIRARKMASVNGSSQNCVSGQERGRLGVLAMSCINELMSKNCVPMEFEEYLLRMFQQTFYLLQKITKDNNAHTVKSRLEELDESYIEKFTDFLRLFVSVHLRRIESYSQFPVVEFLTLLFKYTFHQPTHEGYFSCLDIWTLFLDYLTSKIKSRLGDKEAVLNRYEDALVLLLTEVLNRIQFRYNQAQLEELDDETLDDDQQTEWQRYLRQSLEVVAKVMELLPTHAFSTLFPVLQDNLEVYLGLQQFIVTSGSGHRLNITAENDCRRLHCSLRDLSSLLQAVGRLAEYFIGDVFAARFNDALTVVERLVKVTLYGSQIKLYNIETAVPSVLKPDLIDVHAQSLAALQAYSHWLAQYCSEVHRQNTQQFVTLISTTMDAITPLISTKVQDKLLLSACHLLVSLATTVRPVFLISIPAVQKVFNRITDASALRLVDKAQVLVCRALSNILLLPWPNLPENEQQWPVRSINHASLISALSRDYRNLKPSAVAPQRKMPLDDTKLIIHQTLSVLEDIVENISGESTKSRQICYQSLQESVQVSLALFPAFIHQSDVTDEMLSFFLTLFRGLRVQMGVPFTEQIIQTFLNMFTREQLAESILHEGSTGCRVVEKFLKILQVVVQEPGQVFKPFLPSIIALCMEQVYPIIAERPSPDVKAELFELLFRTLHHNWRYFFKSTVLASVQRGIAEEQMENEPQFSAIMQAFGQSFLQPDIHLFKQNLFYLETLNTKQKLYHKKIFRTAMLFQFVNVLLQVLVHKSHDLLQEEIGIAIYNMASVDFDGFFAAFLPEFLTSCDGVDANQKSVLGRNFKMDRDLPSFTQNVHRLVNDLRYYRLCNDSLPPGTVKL
# UniProt Q96HC4: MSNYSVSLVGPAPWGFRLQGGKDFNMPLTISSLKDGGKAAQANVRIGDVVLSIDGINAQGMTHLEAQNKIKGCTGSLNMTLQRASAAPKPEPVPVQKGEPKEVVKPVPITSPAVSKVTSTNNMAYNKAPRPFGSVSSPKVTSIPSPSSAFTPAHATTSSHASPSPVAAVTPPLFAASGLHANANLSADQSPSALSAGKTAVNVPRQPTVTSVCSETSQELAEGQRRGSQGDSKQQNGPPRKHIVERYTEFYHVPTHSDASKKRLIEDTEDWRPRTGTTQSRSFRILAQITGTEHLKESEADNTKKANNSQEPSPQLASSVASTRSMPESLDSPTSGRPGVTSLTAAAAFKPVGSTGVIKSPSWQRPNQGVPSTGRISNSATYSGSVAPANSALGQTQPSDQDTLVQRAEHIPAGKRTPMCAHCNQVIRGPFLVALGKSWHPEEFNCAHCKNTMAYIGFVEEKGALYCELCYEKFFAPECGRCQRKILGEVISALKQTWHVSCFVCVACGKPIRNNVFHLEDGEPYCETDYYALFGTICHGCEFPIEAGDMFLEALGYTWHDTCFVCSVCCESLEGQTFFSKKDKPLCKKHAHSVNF
# UniProt Q96K58: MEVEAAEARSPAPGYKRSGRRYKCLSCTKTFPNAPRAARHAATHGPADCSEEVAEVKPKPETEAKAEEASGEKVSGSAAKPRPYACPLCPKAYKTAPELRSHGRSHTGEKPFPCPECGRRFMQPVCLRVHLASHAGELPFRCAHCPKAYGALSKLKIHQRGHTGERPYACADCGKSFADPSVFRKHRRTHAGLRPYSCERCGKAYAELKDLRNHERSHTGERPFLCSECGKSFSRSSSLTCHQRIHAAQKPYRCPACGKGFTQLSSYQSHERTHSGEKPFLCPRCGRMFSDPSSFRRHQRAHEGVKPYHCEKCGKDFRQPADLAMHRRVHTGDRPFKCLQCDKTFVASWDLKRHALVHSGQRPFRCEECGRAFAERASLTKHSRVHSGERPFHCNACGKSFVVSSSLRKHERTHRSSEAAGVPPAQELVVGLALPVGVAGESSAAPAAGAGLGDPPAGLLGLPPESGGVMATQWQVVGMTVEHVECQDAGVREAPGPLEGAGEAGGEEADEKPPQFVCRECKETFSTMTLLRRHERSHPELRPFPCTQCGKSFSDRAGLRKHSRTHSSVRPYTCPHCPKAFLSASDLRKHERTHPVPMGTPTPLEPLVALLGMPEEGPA
# Compound: Nc1ncnc2c1ncn2[C@@H]1O[C@H](COP(=O)(O)OP(=O)(O)OP(=O)(O)O)[C@@H](O)[C@H]1O [adenosine triphosphate]
# Assay: NP40-soluble protein abundance relative to vehicle (solubility fold change) (ratio); higher = more soluble protein in presence of ATP
# Procedure, shortened: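 Data come from three independent experiments in which Dounce-homogenised Jurkat crude lysate was treated at eight concentrations from 0.1 to 10 mM. Treatment ran 10 min at room temperature and then 3 min at 37 °C, after which 0.8% NP40 and benzonase were added for 60 min at 4 °C before ultracentrifugation. The supernatant underwent TMT labelling and LC-MS/MS, and vsn-normalised intensities were expressed as fold change against the detergent-processed vehicle in each replicate.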
Target,NP40-soluble protein abundance (concentration: 1mM),NP40-soluble protein abundance (concentration: 2mM),NP40-soluble protein abundance (concentration: 4mM),NP40-soluble protein abundance (concentration: 6mM),NP40-soluble protein abundance (concentration: 8mM),NP40-soluble protein abundance (concentration: 10mM)
CCDC51 (UniProt Q96ER9),0.998 ± 0.028,0.997 ± 0.019,0.983 ± 0.021,0.997 ± 0.013,0.9488 ± 0.0044,0.944 ± 0.029
PURB (UniProt Q96QR8),0.949 ± 0.0098,0.951 ± 0.041,0.911 ± 0.036,0.972 ± 0.022,0.892 ± 0.013,0.933 ± 0.041
UniProt Q96CG8 and related entries,0.936 ± 0.11,1.08 ± 0.12,0.979 ± 0.038,0.982 ± 0.014,0.932 ± 0.048,0.974 ± 0.017
UniProt Q96QE5 and related entries,0.976 ± 0.13,0.983 ± 0.091,1.02 ± 0.081,0.837 ± 0.065,1.18 ± 0.037,1.17 ± 0.15
UniProt Q96NC0,1.03 ± 0.063,1.06 ± 0.032,1.05 ± 0.028,1.12 ± 0.025,1.06 ± 0.024,1.11 ± 0.056
UniProt Q96PU5 and related entries,0.901 ± 0.074,0.937 ± 0.052,0.974 ± 0.065,0.882 ± 0.051,0.957 ± 0.046,0.959 ± 0.075
UniProt Q96RR4 and related entries,1.05 ± 0.043,1.04 ± 0.026,1 ± 0.028,1.03 ± 0.041,1 ± 0.012,1.02 ± 0.033
UniProt Q96MT7-2,0.984 ± 0.1,0.971 ± 0.06,1.08 ± 0.2,1.05 ± 0.22,1.04 ± 0.14,0.979 ± 0.074
UniProt Q96EK5,0.957 ± 0.048,0.959 ± 0.031,0.952 ± 0.04,0.908 ± 0.088,0.949 ± 0.032,0.961 ± 0.044
UniProt Q96S66 and related entries,1 ± 0.057,0.985 ± 0.027,0.976 ± 0.043,0.984 ± 0.048,0.954 ± 0.054,0.926 ± 0.054
UniProt Q96S97 and related entries,1.06 ± 0.074,1.05 ± 0.02,1.01 ± 0.075,0.944 ± 0.042,1.02 ± 0.016,1.05 ± 0.034
UniProt Q96RF0-2|Q96RF0 and related entries,1.06 ± 0.13,1.05 ± 0.093,1.07 ± 0.12,1.06 ± 0.11,1.04 ± 0.12,1.04 ± 0.088
UniProt Q96QU8 and related entries,1.02 ± 0.012,1.03 ± 0.055,1.02 ± 0.02,0.962 ± 0.097,0.971 ± 0.013,1.03 ± 0.046
PDLIM5 (UniProt Q96HC4),1.01 ± 0.032,1 ± 0.03,0.994 ± 0.061,0.999 ± 0.045,0.984 ± 0.082,0.964 ± 0.042
UniProt Q96K58 and related entries,1.07 ± 0.086,1.04 ± 0.047,1.04 ± 0.029,1.08 ± 0.08,1.01 ± 0.051,1.011 ± 0.0076

# Shown as tab-separated lines: part of the list above
Target	NP40-soluble protein abundance (concentration: 1mM)	NP40-soluble protein abundance (concentration: 2mM)	NP40-soluble protein abundance (concentration: 4mM)	NP40-soluble protein abundance (concentration: 6mM)	NP40-soluble protein abundance (concentration: 8mM)	NP40-soluble protein abundance (concentration: 10mM)
CCDC51 (UniProt Q96ER9)	0.998 ± 0.028	0.997 ± 0.019	0.983 ± 0.021	0.997 ± 0.013	0.9488 ± 0.0044	0.944 ± 0.029
UniProt Q96EK5	0.957 ± 0.048	0.959 ± 0.031	0.952 ± 0.04	0.908 ± 0.088	0.949 ± 0.032	0.961 ± 0.044
